# In the supplement of paper PMC7877785:
# ± gives the uncertainty stated by the source. Many entries were measured with a wide error.
# Test: self-splicing fitness, log relative to wild type (ln ratio); higher = more splicing; Tetrahymena group I intron in knt gene, E. coli kanamycin selection, DiMSum; sequences stand for … in CUCUCU…GGAGGGAAAAGUUAUCAGGCAUGCACCUGGUAGCUAGUCUUUAAACCAAUAGAUUGCAUCGGUUUAAAAGGCAAGACCGUCAAAUUGCGGGAAAGGGGUCAACAGCCGUUCAGUACCAAGUCUCAGGGGAAACUUUGAGAUGGCCUUGCAAAGGGUAUGGUAAUAAGCUGACGGACAUGGUCCUAACCACGCAGCCAAGUCCUAAGUCAACAGAUCUUCUGUUGAUAUGGAUGCAGUUCACAGACUAAAUGUCGGUCGGGGAAGAUGUAUUCUUCUCAUAAGAUAUAGUCGGACCUCUCCUUAAUGGGAGCUAGCGGAUGAAGUGAUGCAACACUGGAGCCGCUGGGAACUAAUUUGUAUGCGAAAGUAUAUUGAUUAGUUUUGGAGUACUCGUGGUCG
# In short: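 DiMSum derived fitness as the error-weighted combination of fold changes across replicates, kanamycin versus no kanamycin, normalised to wild type. E. coli BL21(DE3) held the library, which randomised all eight P1ex-region intron nucleotides within the knt kanamycin-resistance gene on pET-22b(+). Six replicate transformations grew overnight at 37°C or 30°C on LB agar with or without 25 μg/mL kanamycin, also containing 100 μg/mL carbenicillin, 50 μM IPTG and 0.2% rhamnose, and pooled colonies were amplicon-sequenced on an Illumina HiSeq 2500.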
Sequence,self-splicing fitness (ln) (30 °C),self-splicing fitness (ln) (37 °C)
AACGAGCAAUAUUACGAGCC,-3.68 ± 0.6,-1.92 ± 0.64
UUUUAGCAAUAUUACGGGCC,,-2.09 ± 0.78
UGAGAGCAAUAUUACGCUCA,-2.62 ± 0.62,
CUGUAGCAAUAUUACGCAGA,-4.1 ± 0.59,-4.37 ± 0.52
UCGUAGCAAUAUUACGCCAG,,-1.79 ± 0.53
GUUUAGCAAUAUUACGGCCC,,0.553 ± 0.63
GCGGAGCAAUAUUACGCGGA,,-2.61 ± 0.54
UAUAAGCAAUAUUACGCCGU,,-1.09 ± 0.7
UUAGAGCAAUAUUACGAGGC,-2.24 ± 0.55,-2.5 ± 0.55
CCGGAGCAAUAUUACGAUAU,-4.23 ± 0.6,
GUCAAGCAAUAUUACGAACC,,-2.49 ± 0.63
GCGGAGCAAUAUUACGCCUG,,-2.19 ± 0.56
CCUGAGCAAUAUUACGGUAC,,-3.39 ± 0.52
UUGUAGCAAUAUUACGGAAC,-2.7 ± 0.63,
GGAAAGCAAUAUUACGCUGC,,-2.67 ± 0.76
UCGCAGCAAUAUUACGGCCC,-2.5 ± 0.57,
CGCCAGCAAUAUUACGGAGA,-4.59 ± 0.72,
GGGCAGCAAUAUUACGACUA,-0.237 ± 0.094,0.125 ± 0.11
ACGGAGCAAUAUUACGGCUA,-1.96 ± 0.21,-0.548 ± 0.14
GAGGAGCAAUAUUACGAAAA,-2.42 ± 1.2,-2.22 ± 0.5
UGCUAGCAAUAUUACGUAAG,-2.3 ± 0.19,-1.35 ± 0.18
UGCUAGCAAUAUUACGCCGU,-3.57 ± 0.54,-2.06 ± 0.8
UAUAAGCAAUAUUACGAGCC,,-0.595 ± 1.4
UUGGAGCAAUAUUACGGAGU,,-1.09 ± 0.65

Sequence,self-splicing fitness (ln) (30 °C),self-splicing fitness (ln) (37 °C)
CGGUAGCAAUAUUACGGAAC,-4.39 ± 0.72,
GCGAAGCAAUAUUACGCACC,-2.65 ± 1.1,-0.351 ± 0.73
CUCAAGCAAUAUUACGGAGU,-3.52 ± 0.17,-3.04 ± 0.18
CAGGAGCAAUAUUACGUGCC,,-1.96 ± 0.52
GAAGAGCAAUAUUACGGAAC,-4.03 ± 1,
UCCGAGCAAUAUUACGGCUG,-2.83 ± 0.19,-1.6 ± 0.29
GUCGAGCAAUAUUACGAGGU,,-1.97 ± 0.52
CGCGAGCAAUAUUACGCUAC,-2.96 ± 0.59,
CUUGAGCAAUAUUACGUGUU,-4.81 ± 1,-2.54 ± 0.23
CCGGAGCAAUAUUACGGUAC,-2.73 ± 0.22,-2.25 ± 0.4
GGAUAGCAAUAUUACGCUCU,,-2.3 ± 1.1
UACGAGCAAUAUUACGCAGA,-2.81 ± 0.76,
CGCUAGCAAUAUUACGAGAA,-4.04 ± 1.1,
CCGGAGCAAUAUUACGCCCG,,-2.07 ± 1.1
UAGGAGCAAUAUUACGCGCC,-3.77 ± 0.53,
UGCCAGCAAUAUUACGGCAG,-2.25 ± 0.093,-1.15 ± 0.1
UGGUAGCAAUAUUACGCAAG,-4.04 ± 0.76,-3.29 ± 0.52
CCUCAGCAAUAUUACGACUC,,-1.94 ± 0.67
CACUAGCAAUAUUACGGAUC,,-3.54 ± 1
GCUCAGCAAUAUUACGCACG,-3.19 ± 0.31,-1.02 ± 0.24
GAAGAGCAAUAUUACGCAUC,-3.6 ± 0.75,-1.49 ± 0.56
UGAGAGCAAUAUUACGCGCA,-1.38 ± 0.57,-0.326 ± 0.59
UGAUAGCAAUAUUACGUCCA,0.015 ± 0.09,0.154 ± 0.12
UCAAAGCAAUAUUACGAUCC,-3.21 ± 0.3,-2.34 ± 0.4

Sequence,self-splicing fitness (ln) (30 °C),self-splicing fitness (ln) (37 °C)
AAUGAGCAAUAUUACGUUAC,-3.61 ± 0.54,-3.16 ± 0.52
ACAGAGCAAUAUUACGAUAC,,-2.82 ± 0.53
AAUGAGCAAUAUUACGCAAA,-3.02 ± 0.63,
UCACAGCAAUAUUACGCCAC,-4.87 ± 1,
CUGGAGCAAUAUUACGUAGA,-4.83 ± 0.51,-2.67 ± 0.2
GCGCAGCAAUAUUACGCCAA,-0.455 ± 0.91,
UACUAGCAAUAUUACGAUGC,-4.22 ± 0.26,-2.54 ± 0.3
UUAGAGCAAUAUUACGUGCC,-4.4 ± 0.72,
GGACAGCAAUAUUACGCUUU,-1.39 ± 0.065,-0.538 ± 0.087
GAAUAGCAAUAUUACGGCCC,-0.303 ± 0.14,0.174 ± 0.21
CAGGAGCAAUAUUACGCAAU,-3 ± 0.5,
CUUCAGCAAUAUUACGACUA,,-2.82 ± 0.53
UUAGAGCAAUAUUACGCGGA,-1.29 ± 0.1,-0.00507 ± 0.11
CGGGAGCAAUAUUACGCUGC,-2.42 ± 1.2,-3.22 ± 0.74
GUUUAGCAAUAUUACGAGCU,-3.97 ± 1,
CCAGAGCAAUAUUACGGGAA,-2.99 ± 0.62,
ACAGAGCAAUAUUACGCCCC,-2.56 ± 0.77,-1.47 ± 1.2
CAGUAGCAAUAUUACGCACA,-1.88 ± 0.14,-0.579 ± 0.18
CCGGAGCAAUAUUACGUGAC,,-1.43 ± 0.55
CAGAAGCAAUAUUACGUAAA,-4.01 ± 0.31,-1.73 ± 0.16
CACCAGCAAUAUUACGACAU,-3.726 ± 0.018,-2.66 ± 0.035
UCAUAGCAAUAUUACGCGAC,-3.39 ± 0.54,
CGAAAGCAAUAUUACGAGAC,-3.88 ± 0.51,
UCCAAGCAAUAUUACGUCCC,-2.78 ± 0.55,-1.76 ± 0.83

Sequence,self-splicing fitness (ln) (30 °C),self-splicing fitness (ln) (37 °C)
GGCGAGCAAUAUUACGAGGG,,-2.23 ± 0.56
GAGAAGCAAUAUUACGAAAC,-2.29 ± 0.36,-1.71 ± 0.48
GGAGAGCAAUAUUACGUGAC,,-1.29 ± 1.2
CCUAAGCAAUAUUACGCCAC,,-1.69 ± 0.57
CAUGAGCAAUAUUACGUGAC,,-1.49 ± 0.81
GCACAGCAAUAUUACGAUAU,-0.993 ± 0.056,-0.54 ± 0.071
UGGCAGCAAUAUUACGUGCG,-0.238 ± 0.061,0.163 ± 0.084
UUCUAGCAAUAUUACGUAGU,-2.76 ± 0.52,
UUUGAGCAAUAUUACGAGGA,-3.62 ± 0.28,-3.55 ± 0.46
CUUCAGCAAUAUUACGCUCA,-2.65 ± 0.77,
CAGGAGCAAUAUUACGAAGA,,-2.22 ± 0.65
UGGAAGCAAUAUUACGCCUC,-5.22 ± 1,-3.8 ± 0.59
UGCGAGCAAUAUUACGGUUC,-2.75 ± 0.28,-2.31 ± 0.63
CGAGAGCAAUAUUACGAAGU,-4.35 ± 1,
GAUCAGCAAUAUUACGGGGG,-3.25 ± 0.18,-2.51 ± 0.18
AUUGAGCAAUAUUACGAUGA,-4.47 ± 0.72,
GGGAAGCAAUAUUACGCCCU,-2.89 ± 0.51,-1.95 ± 0.81
AGAAAGCAAUAUUACGCUAC,-3.25 ± 0.39,-3.8 ± 0.73
UUACAGCAAUAUUACGGCAC,-1.77 ± 0.17,-2.26 ± 0.18
UGCCAGCAAUAUUACGAAAC,-4.09 ± 0.59,
UCUCAGCAAUAUUACGUCCC,-3.96 ± 1,-2.48 ± 0.54
AUGGAGCAAUAUUACGGCUC,,-1.08 ± 0.93
UACCAGCAAUAUUACGUACA,-0.719 ± 0.071,-0.432 ± 0.1
UAUGAGCAAUAUUACGCAUC,-3.27 ± 1.1,-2.15 ± 0.65

# Single records, from the list above.
# AUUGAGCAAUAUUACGAUGA reads self-splicing fitness (ln) (30 °C): -4.47 ± 0.72
# UUACAGCAAUAUUACGGCAC reads self-splicing fitness (ln) (30 °C): -1.77 ± 0.17; self-splicing fitness (ln) (37 °C): -2.26 ± 0.18
# UACCAGCAAUAUUACGUACA reads self-splicing fitness (ln) (30 °C): -0.719 ± 0.071; self-splicing fitness (ln) (37 °C): -0.432 ± 0.1
# GAGAAGCAAUAUUACGAAAC reads self-splicing fitness (ln) (30 °C): -2.29 ± 0.36; self-splicing fitness (ln) (37 °C): -1.71 ± 0.48

# Further records:

Sequence,self-splicing fitness (ln) (30 °C),self-splicing fitness (ln) (37 °C)
CGAGAGCAAUAUUACGAUAU,,-1.54 ± 0.6
CUAUAGCAAUAUUACGUCUU,-4.3 ± 0.32,-2.76 ± 0.23
UCUGAGCAAUAUUACGACGC,-1.34 ± 0.63,-0.44 ± 1
CGCAAGCAAUAUUACGUAGU,-3.1 ± 0.097,-2.75 ± 0.098
UGAGAGCAAUAUUACGUUAA,-3.42 ± 0.54,-2.46 ± 0.3
UCGCAGCAAUAUUACGUUCC,,-2.63 ± 0.61
UAUAAGCAAUAUUACGGGGC,,-3.08 ± 0.61
UGGGAGCAAUAUUACGAAGG,-3.55 ± 0.74,
GGAAAGCAAUAUUACGCCAC,,-2.01 ± 0.57
GAUUAGCAAUAUUACGCCAG,-2.17 ± 0.32,-0.806 ± 0.34
UACGAGCAAUAUUACGCCAU,-2.44 ± 0.55,
CGUUAGCAAUAUUACGUCGC,-2.58 ± 0.8,
GGGGAGCAAUAUUACGUUCC,-4.49 ± 1,
UAUGAGCAAUAUUACGGCCU,,-2.84 ± 0.77
GUUGAGCAAUAUUACGGUGA,-3.5 ± 0.61,
GGAGAGCAAUAUUACGAGCU,-1.52 ± 1.2,2.06 ± 0.73
CUAUAGCAAUAUUACGGCGC,,-2.07 ± 0.65
CCGAAGCAAUAUUACGCCAA,-2.33 ± 0.64,-2.76 ± 0.76
UUGAAGCAAUAUUACGUUGC,,-3.2 ± 0.52
UAGUAGCAAUAUUACGCGGC,-3.16 ± 1,-0.949 ± 0.55
GAAGAGCAAUAUUACGCAGC,,-1.04 ± 0.51
